In one assay the target is B-Raf (Homo sapiens (Human), UniProt P15056). Description: B-Raf kinase activity (B-Raf/MEK1/MAPK2 cascade, MBP phosphorylation, [γ-32P]ATP). The following applies: read-out: B-Raf Enzyme Activity, activated B-Raf, inactivated MEK1, inactivated MAPK2, 30° C., 30 minutes.
Another assay has as its system A375P cell line. Briefly: B-Raf cell activity inhibition (A375P growth inhibition, MTT assay). It is filed as cell-based. Particulars: read-out: Cell Activity (A375P), IC50, A375P human melanoma, V600E mutant of B-Raf, 72 hours.

The chains behind the UniProt entries cited, without tags or fusion partners.
UniProt P15056, whole entry: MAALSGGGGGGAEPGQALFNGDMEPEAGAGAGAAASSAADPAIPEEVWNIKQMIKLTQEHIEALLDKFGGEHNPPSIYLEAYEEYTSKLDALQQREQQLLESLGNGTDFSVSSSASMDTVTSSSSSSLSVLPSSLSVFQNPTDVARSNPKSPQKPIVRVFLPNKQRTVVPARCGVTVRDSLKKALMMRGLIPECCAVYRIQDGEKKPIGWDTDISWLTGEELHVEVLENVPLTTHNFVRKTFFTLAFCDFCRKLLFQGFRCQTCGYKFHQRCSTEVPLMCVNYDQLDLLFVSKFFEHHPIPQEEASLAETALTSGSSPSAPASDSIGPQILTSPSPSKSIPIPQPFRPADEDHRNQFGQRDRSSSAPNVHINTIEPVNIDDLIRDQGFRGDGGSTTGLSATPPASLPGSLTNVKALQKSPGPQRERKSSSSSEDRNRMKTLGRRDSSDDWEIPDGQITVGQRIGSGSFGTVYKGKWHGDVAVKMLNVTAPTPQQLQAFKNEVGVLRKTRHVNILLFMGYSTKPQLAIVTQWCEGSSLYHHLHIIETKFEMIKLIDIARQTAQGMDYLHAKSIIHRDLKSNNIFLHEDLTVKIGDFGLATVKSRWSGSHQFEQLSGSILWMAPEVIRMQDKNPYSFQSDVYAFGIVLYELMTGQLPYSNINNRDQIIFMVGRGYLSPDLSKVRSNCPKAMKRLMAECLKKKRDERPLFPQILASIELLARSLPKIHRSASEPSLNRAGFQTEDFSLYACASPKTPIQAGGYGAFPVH

pIC50: −log10 of the molar value. Structures were worked out from names or drawings and are uncertain.

This is an account of results in patent publication US9216981B2, “Purinylpyridinylamino-2,4-difluorophenyl sulfonamide derivative, pharmaceutically acceptable salt thereof, preparation method thereof, and pharmaceutical composition with inhibitory activity against Raf kinase, containing same as active ingredient” (Medpacto, Inc., priority 2010, dated 2015).

As for `O=S(=O)(Nc1ccc(F)c(Nc2ncccc2-c2ncnc3[nH]cnc23)c1F)c1ccc(C2OCCO2)o1`, the pIC50 at B-Raf was 6.66; in the assay on A375P cell line, 6.10.
